± gives the standard deviation of the averaged measurements. This is a selection; strong and weak results do not stand in their true shares.
Legend:
Experiment in all cases: NP40-soluble protein abundance relative to vehicle (solubility fold change) (ratio); higher = more soluble protein in presence of AMP-PNP
[1] = biological target: T1, ATP11B (UniProt Q9Y2G3)
T1 sequence (whole entry): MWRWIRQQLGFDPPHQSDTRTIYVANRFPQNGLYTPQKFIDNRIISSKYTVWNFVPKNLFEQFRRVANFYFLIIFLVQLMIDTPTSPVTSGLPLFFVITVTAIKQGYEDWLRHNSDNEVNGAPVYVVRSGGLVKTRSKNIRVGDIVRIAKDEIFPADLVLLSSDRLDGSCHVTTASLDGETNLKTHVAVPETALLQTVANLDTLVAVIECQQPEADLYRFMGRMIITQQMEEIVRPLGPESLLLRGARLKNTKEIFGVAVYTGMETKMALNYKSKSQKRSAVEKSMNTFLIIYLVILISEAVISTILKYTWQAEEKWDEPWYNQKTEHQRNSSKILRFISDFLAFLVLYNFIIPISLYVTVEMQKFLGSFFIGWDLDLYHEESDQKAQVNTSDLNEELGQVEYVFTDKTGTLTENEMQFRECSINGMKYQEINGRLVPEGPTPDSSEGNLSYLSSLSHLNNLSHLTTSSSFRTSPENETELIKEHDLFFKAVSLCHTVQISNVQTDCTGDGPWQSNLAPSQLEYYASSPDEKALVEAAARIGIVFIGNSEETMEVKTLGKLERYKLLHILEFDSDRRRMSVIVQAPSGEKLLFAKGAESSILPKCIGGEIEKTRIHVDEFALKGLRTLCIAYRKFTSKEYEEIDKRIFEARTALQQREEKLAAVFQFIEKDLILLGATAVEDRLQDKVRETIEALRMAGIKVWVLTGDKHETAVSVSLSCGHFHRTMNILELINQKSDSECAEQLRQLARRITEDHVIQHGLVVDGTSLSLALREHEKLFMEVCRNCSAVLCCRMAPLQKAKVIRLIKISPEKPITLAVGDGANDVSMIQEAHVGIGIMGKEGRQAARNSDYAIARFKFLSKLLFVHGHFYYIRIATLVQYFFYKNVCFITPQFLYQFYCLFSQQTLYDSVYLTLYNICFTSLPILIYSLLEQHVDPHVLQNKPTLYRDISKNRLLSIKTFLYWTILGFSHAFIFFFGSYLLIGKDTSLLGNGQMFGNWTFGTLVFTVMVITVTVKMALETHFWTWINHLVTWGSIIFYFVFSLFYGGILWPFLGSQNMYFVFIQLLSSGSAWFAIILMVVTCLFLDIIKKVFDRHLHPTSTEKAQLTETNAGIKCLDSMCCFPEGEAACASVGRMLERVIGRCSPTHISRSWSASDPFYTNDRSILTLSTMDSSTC
Summary of the method: (§1)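 Across three independent experiments, values are fold changes against the detergent-processed vehicle for each replicate, based on vsn-normalised intensities. The samples were Jurkat crude lysate treated with eight concentrations (0.1 to 10 mM) for 10 min at room temperature and then 3 min at 37 °C. Lysate was solubilised with 0.8% NP40 and benzonase, ultracentrifuged, and the supernatant analysed by TMT-labelled LC-MS/MS.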

[2] = biological target: T2, DDX52 (UniProt Q9Y2R4)
T2 sequence (whole entry): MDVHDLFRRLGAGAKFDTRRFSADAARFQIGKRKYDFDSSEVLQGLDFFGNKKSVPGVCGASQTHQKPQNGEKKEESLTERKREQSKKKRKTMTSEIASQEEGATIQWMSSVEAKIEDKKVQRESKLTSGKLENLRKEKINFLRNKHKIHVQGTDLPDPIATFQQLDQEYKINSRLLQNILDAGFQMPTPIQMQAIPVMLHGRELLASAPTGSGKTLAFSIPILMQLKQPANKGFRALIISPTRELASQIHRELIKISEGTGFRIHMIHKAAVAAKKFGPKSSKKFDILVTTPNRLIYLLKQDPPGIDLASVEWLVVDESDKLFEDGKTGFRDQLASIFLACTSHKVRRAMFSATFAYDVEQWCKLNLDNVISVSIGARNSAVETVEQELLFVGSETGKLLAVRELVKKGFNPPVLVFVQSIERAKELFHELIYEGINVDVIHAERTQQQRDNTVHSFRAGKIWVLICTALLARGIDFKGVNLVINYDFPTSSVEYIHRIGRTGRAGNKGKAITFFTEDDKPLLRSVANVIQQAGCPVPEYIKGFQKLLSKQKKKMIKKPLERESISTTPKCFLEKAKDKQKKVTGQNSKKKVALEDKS
Summary of the method: as §1

[3] = biological target: T3, FAF1 (UniProt Q9UNN5)
T3 sequence (whole entry): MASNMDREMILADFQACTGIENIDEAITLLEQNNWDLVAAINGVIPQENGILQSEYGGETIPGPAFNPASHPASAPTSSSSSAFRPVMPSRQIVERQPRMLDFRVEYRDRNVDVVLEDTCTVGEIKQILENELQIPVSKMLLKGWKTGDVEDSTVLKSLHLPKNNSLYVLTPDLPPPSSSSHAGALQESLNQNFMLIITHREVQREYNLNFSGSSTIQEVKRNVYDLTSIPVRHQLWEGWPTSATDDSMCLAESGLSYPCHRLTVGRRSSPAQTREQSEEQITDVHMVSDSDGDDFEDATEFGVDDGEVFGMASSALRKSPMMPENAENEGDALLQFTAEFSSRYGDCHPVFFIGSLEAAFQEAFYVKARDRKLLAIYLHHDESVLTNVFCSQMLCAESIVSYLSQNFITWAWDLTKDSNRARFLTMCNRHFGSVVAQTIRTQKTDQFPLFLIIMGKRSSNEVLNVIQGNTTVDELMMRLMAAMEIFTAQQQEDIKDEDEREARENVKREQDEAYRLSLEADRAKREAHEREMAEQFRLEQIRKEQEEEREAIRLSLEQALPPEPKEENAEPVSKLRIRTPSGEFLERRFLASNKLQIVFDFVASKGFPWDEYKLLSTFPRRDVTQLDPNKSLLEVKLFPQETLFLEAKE
Summary of the method: as §1

[4] = biological target: T4, FIS1 (UniProt Q9Y3D6)
T4 sequence (whole entry): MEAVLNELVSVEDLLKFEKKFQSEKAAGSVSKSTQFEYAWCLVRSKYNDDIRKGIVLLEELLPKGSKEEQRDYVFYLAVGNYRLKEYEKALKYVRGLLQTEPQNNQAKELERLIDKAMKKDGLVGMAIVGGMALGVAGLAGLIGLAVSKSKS
Summary of the method: as §1

[5] = biological target: T5, GGT7 (UniProt Q9UJ14)
T5 sequence (whole entry): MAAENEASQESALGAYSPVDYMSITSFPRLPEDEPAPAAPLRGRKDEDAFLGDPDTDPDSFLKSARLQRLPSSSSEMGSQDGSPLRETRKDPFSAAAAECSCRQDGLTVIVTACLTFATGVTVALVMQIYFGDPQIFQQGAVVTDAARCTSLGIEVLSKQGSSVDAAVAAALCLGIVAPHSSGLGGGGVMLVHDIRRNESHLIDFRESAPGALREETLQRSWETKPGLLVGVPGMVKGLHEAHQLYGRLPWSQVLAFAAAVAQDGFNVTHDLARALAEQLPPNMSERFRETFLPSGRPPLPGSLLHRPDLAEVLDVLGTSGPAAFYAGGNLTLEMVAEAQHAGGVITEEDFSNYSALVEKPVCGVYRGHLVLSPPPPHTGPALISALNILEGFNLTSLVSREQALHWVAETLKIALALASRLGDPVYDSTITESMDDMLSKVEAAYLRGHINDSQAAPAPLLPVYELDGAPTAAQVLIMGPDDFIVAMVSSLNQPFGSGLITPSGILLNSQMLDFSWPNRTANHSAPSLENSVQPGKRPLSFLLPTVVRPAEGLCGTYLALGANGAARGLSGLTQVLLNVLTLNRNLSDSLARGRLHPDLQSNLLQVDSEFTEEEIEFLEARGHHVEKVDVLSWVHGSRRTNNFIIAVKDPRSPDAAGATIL
Summary of the method: as §1

Q: What does the source list for Nc1ncnc2c1ncn2[C@@H]1O[C@H](COP(=O)(O)OP(=O)(O)NP(=O)(O)O)[C@@H](O)[C@H]1O [adenylyl imidodiphosphate]?
A: NP40-soluble protein abundance ([1]; concentration: 1mM): 0.9837 ± 0.0036; NP40-soluble protein abundance ([1]; concentration: 2mM): 0.874 ± 0.13; NP40-soluble protein abundance ([1]; concentration: 4mM): 0.968 ± 0.078; NP40-soluble protein abundance ([1]; concentration: 6mM): 0.8741 ± 0.0016; NP40-soluble protein abundance ([1]; concentration: 8mM): 0.929 ± 0.06; NP40-soluble protein abundance ([1]; concentration: 10mM): 0.866 ± 0.051; NP40-soluble protein abundance ([2]; concentration: 1mM): 1.08 ± 0.094; NP40-soluble protein abundance ([2]; concentration: 2mM): 1.1 ± 0.047; NP40-soluble protein abundance ([2]; concentration: 4mM): 1.18 ± 0.07; NP40-soluble protein abundance ([2]; concentration: 6mM): 1.22 ± 0.038; NP40-soluble protein abundance ([2]; concentration: 8mM): 1.28 ± 0.055; NP40-soluble protein abundance ([2]; concentration: 10mM): 1.39 ± 0.046; NP40-soluble protein abundance ([3]; concentration: 1mM): 1.01 ± 0.022; NP40-soluble protein abundance ([3]; concentration: 2mM): 1.02 ± 0.011; NP40-soluble protein abundance ([3]; concentration: 4mM): 0.988 ± 0.021; NP40-soluble protein abundance ([3]; concentration: 6mM): 0.985 ± 0.045; NP40-soluble protein abundance ([3]; concentration: 8mM): 0.966 ± 0.041; NP40-soluble protein abundance ([3]; concentration: 10mM): 0.986 ± 0.062; NP40-soluble protein abundance ([4]; concentration: 1mM): 0.934 ± 0.017; NP40-soluble protein abundance ([4]; concentration: 2mM): 0.96 ± 0.022; NP40-soluble protein abundance ([4]; concentration: 4mM): 0.922 ± 0.025; NP40-soluble protein abundance ([4]; concentration: 6mM): 0.951 ± 0.1; NP40-soluble protein abundance ([4]; concentration: 8mM): 0.963 ± 0.014; NP40-soluble protein abundance ([4]; concentration: 10mM): 0.93 ± 0.071; NP40-soluble protein abundance ([5]; concentration: 1mM): 1.02 ± 0.012; NP40-soluble protein abundance ([5]; concentration: 2mM): 1.03 ± 0.028; NP40-soluble protein abundance ([5]; concentration: 4mM): 1.03 ± 0.027; NP40-soluble protein abundance ([5]; concentration: 6mM): 1 ± 0.036

— the supplement of paper PMC6411743
